Data published in PMC3750193, “Disassembly of All SNARE Complexes by N-Ethylmaleimide-sensitive Factor (NSF) Is Initiated by a Conserved 1:1 Interaction between α-Soluble NSF Attachment Protein (SNAP) and SNARE Complex*^([image sbox.jpg])” (The Journal of Biological Chemistry, 2013).
No constants are given. Whether binding was seen depends on the method and setting. Some binding calls cover weakened binding; strength is not graded here.

Sequences of proteins named here, by UniProt entry; tags and fusion partners are left off. A change or cut given only in a name is not applied to a line headed by its entry. A line that says so, or that is headed by a name, gives the form on record, which may keep a tag or linker. Residues count along the entry.
VAMP7(119–190) (Q9JHW5, residues 119-190): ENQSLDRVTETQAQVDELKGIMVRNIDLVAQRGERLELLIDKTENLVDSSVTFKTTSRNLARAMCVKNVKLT
VAMP7(1–190)-C21S/C56V (Q9JHW5, form named): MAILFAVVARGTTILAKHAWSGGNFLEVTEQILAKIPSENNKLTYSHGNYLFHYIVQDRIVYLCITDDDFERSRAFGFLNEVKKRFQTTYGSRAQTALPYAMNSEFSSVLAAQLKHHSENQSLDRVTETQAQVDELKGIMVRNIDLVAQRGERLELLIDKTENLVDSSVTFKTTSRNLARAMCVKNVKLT
SNAP25A (P60881-2, form named): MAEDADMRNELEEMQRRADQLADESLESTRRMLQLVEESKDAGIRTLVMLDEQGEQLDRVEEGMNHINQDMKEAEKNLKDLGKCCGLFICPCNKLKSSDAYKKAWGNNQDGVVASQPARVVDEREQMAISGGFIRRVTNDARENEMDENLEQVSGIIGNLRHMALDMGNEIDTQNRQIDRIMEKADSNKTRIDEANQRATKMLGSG
syntaxin4A(1–274)-C141S/E257C/I261C (Q08850, form named): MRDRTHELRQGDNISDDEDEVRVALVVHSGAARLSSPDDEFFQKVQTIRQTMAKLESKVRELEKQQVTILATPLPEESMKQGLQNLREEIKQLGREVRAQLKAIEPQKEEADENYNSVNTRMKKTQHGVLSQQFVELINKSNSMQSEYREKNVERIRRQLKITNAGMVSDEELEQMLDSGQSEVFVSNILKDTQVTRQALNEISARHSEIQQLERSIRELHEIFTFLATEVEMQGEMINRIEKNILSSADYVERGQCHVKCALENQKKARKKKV

B1: SNAP23 (protein, UniProt O70377 1-210)
chain: MDDLSPEEIQLRAHQVTDESLESTRRILGLAIESQDAGIKTITMLDEQGEQLNRIEEGMDQINKDMREAEKTLTELNKCCGLCVCPCNRTKNFESGKNYKATWGDGGDSSPSNVVSKQPSRITNGQPQQTTGAASGGYIKRITNDAREDEMEENLTQVGSILGNLKNMALDMGNEIDAQNQQIQKITEKADTNKNRIDIANTRAKKLIDS
B2: α-soluble NSF attachment protein (α-SNAP) (natural protein, rat, UniProt P54921 1-295, looked up)
chain: MDTSGKQAEAMALLAEAERKVKNSQSFFSGLFGGSSKIEEACEIYARAANMFKMAKNWSAAGNAFCQAAQLHLQLQSKHDAATCFVDAGNAFKKADPQEAINCLMRAIEIYTDMGRFTIAAKHHISIAEIYETELVDVEKAIAHYEQSADYYKGEESNSSANKCLLKVAGYAAQLEQYQKAIDIYEQVGTSAMDSPLLKYSAKDYFFKAALCHFCIDMLNAKLAVQKYEELFPAFSDSRECKLMKKLLEAHEEQNVDSYTESVKEYDSISRLDQWLTTMLLRIKKTIQGDEEDLR
notes: α-SNAP, rat; His6 tag removed with tobacco etch virus protease; source: E. coli BL21(DE3), purified (Ni-NTA, Superdex 200)

Assays:
[1] = molecular target: VAMP7(119–190) (rat) (UniProt Q9JHW5); assay: co-purification of coexpressed proteins; coexpressed in E. coli BL21(DE3), 12 h at 25 °C; lysate on Ni-NTA agarose, washed, eluted with 300 mM imidazole, then Superdex 200 gel filtration; monitored by SDS-PAGE, mass spectrometry, CD and MALS
[2] = molecular target: VAMP7(1–190)-C21S/C56V (rat) (UniProt Q9JHW5); assay: as above
[3] = molecular target: T1, VAMP8(1–76)-I76C (rat) (UniProt Q9WUF4); assay: as above
T1 sequence: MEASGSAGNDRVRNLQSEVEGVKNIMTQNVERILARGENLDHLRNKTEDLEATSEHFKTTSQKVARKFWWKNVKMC

[4] = molecular target: α-soluble NSF attachment protein (α-SNAP) (rat) (UniProt P54921); assay: SEC-MALS; 30 μM SNARE complex and 90 μM α-SNAP (1:3 mixture); WTC-030S5 column; 20 mM Tris-HCl (pH 8.0), 50 mM NaCl, 0.1 mM TCEP; both purified

| Molecule | binding [1] | binding [2] | binding [3] | binding [4] |
| --- | --- | --- | --- | --- |
| SNAP25A (from UniProt P60881-2 1-206) | binds | binds |  |  |
| syntaxin4A(1–274)-C141S/E257C/I261C (from UniProt Q08850 1-274) (domain or fragment) |  | binds | binds |  |
| B1 |  | binds | binds |  |
| B2 |  |  |  | no binding (tested: 90 μM α-SNAP with 30 μM SNARE complex) |
